The target of experiment [1] is recombinant cynomolgus monkey (Macaca fascicularis) transferrin receptor 1 (cynomolgus monkey (Macaca fascicularis)). The experiment can be described thus: binding affinity before and after 9 days at 40 °C.
In experiment [2] the target is recombinant human transferrin receptor 1 (human) (UniProt P02786). The experiment can be described thus: binding affinity before and after 9 days at 40 °C.

Results are given in words; binding and its absence hold for the method and conditions named. Some entries that bind do so weakly or less than the wild type.

B1: humanized anti-TfR Fab 5H12 VH5 (C33Y)/Vκ4 (Fab, V domains shown)
VH: QVQLVQSGAEVKKPGASVKVSCKASGYSFTDYYINWVRQAPGQGLEWMGWIYPGSGNTRYSERFKGRVTITRDTSASTAYMELSSLRSEDTAVYYCAREDYYPYHGMDYWGQGTLVTVSS
VL: DIVMTQSPDSLAVSLGERATINCRASESVDGYDNSFMHWYQQKPGQPPKLLIFRASNLESGVPDRFSGSGSGTDFTLTISSLQAEDVAVYYCQQSSEDPWTFGQGTKLEIKR
On to B1, for which the binding entry in experiment [1] and in experiment [2] was “binds” throughout.
